Reference: PubChem BioAssay AID504582 (Broad Institute, 2011)
About 2,300 (0.68%) of roughly 340,000 compounds were called active. This list was built around the results that the source calls inconclusive (neither active nor inactive); the mix of calls is not that of the screen. Rule as the data show it: active = growth rescue above about 28% (passing the limit was not always enough); inconclusive = no clear call, values can overlap the other calls.

Assay: rescue of yeast from PfHsp40 toxicity, primary screen, S. cerevisiae, ATP luminescence (AID 504582);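 also: yeast W303a lacking pdr1 and pdr3 grown in galactose medium; growth measured after three days at 30 °C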
Conditions: S. cerevisiae expressing PfHsp40, growth rescue, at 12.5 µM, stronger effect = higher value

| Structure (SMILES) | growth rescue |
| --- | --- |
| Clc1ccc(N2CCN(Cc3ccc(Br)o3)CC2)cc1 | inconclusive: 58.7% |
| Cc1ccc(S(=O)(=O)Nc2ccccc2-c2ccccc2)cc1 | inconclusive: 38.4% |
| Cc1ccc(S(=O)(=O)N(c2nc(N(C)C)nc(N(C)C)n2)n2cnnc2)cc1 | inactive: 9.46% |
| Cc1nc2ccc(C(=O)Nc3ccccc3Cl)cc2s1 | active: 76.6% |
| Cc1cc(/C=C2\SC(=S)N(C)C2=O)c(C)n1-c1cccc(O)c1 | inconclusive: 42.8% |
| CC(=NNC(=S)N(Cc1ccccn1)Cc1ccccn1)c1cnccn1 | active: 113% |
| O=C(COc1cccc(OC(F)F)c1)Nc1ccc(SC(F)F)cc1 | inconclusive: 25.1% |
| Cc1cc(C)c2nc(NNC(=O)c3ccc(S(=O)(=O)N4CCCC(C)C4)cc3)sc2c1 (stereo not given) | active: 96.7% |
| COC(=O)C(C(=O)Nc1cccc(C)n1)C1CCCCCC1 (stereo not given) | inactive: -0.474% |
| C=CCn1c(=N)n(CC(=O)c2ccc(Cl)cc2)c2ccccc21 | inconclusive: 97.7% |
| COc1cc(-c2ccc3c(=O)c4ccccc4sc3c2)cc(OC)c1OC | inactive: -0.299% |
| O=C(Nc1cccc(F)c1)c1ccc(-c2ccccc2Cl)o1 | inconclusive: 49.4% |
| CCOC(=O)n1c(=O)n(Cc2ccc(Cl)cc2Cl)c2ccccc21 | inconclusive: 27.4% |
| CCCCc1ccc(NC(=O)CN(C)CC(=O)Nc2ccccc2Cl)cc1 | active: 35.7% |
| Cc1ccc(Cn2ccnc2SCC(=O)NC2CCCC2)cc1 | inconclusive: 32.7% |
| O=C(CNC(=O)c1cccc(Cl)c1)Nc1ccc(F)c(F)c1F | inconclusive: 32.5% |
| Oc1ccc(Cc2ccccc2Cl)c(O)c1 | inactive: 3.46% |
| COC(=O)Cn1cnc2scc(-c3ccc(C)c(C)c3)c2c1=O | active: 151% |
| CCOc1ccccc1NC(=O)CSc1n[nH]c(N)n1 | inconclusive: 45.9% |
| COc1ccccc1NC(=O)C1=C(C)Nc2nc(-c3cccnc3)nn2C1c1ccccn1 (stereo not given) | inactive: -0.643% |
| O=C(/C=C/c1ccc(F)cc1)NCCCN1CCN(CCCNC(=O)/C=C/c2ccc(F)cc2)CC1 | active: 37.1% |
| O=c1c2ccccc2nc(-c2ccc(-c3ccccc3)cc2)n1-c1ccncc1 | active: 341% |
| COc1ccccc1OCc1nc(C#N)c(N2CCC(C(N)=O)CC2)o1 | inactive: -0.873% |

3 compounds out of the list, sorted by molecular weight, largest number first:

| Structure (SMILES) | growth rescue |
| --- | --- |
| Cc1cc(C)c2nc(NNC(=O)c3ccc(S(=O)(=O)N4CCCC(C)C4)cc3)sc2c1 (stereo not given) | active: 96.7% |
| COc1ccccc1NC(=O)C1=C(C)Nc2nc(-c3cccnc3)nn2C1c1ccccn1 (stereo not given) | inactive: -0.643% |
| C=CCn1c(=N)n(CC(=O)c2ccc(Cl)cc2)c2ccccc21 | inconclusive: 97.7% |

Rewritten with each value named: 2 of the compounds above.
Oc1ccc(Cc2ccccc2Cl)c(O)c1
  growth rescue: inactive: 3.46%
COC(=O)Cn1cnc2scc(-c3ccc(C)c(C)c3)c2c1=O
  growth rescue: active: 151%

(list continues)

| Structure (SMILES) | growth rescue |
| --- | --- |
| CCCNC(=O)c1ccc2nc(-c3ccccc3)c(-c3ccccc3)nc2c1 | inactive: -1.22% |
| O=C(NCC(=O)N(c1ccc(F)cc1)C(C(=O)NC1CCCC1)c1cccnc1)c1cccs1 (stereo not given) | inactive: 0.877% |
| C=C(CCC(=O)c1ccccc1)C(=O)c1ccccc1 | inactive: 0.124% |
| Cc1ccc(NC(=S)NC(C)CCc2ccccc2)cc1C (stereo not given) | inconclusive: 49.4% |
| N[C@@H]1C[C@H]1c1ccccc1 | active: 44.4% |
| Cn1cnc([N+](=O)[O-])c1S(=O)(=O)Oc1cccc2ccccc12 | inconclusive: 120% |
| O=C(NC(Cc1ccccc1)C(=O)O)c1ccc(S(=O)(=O)N2CCOCC2)cc1 (stereo not given) | inactive: 2.02% |
| CCOC(=O)N1CCN(C(=O)c2cc(-n3cnnc3)ccc2Cl)CC1 | inactive: -1% |
| COc1cccc(CNC(=O)COC(=O)CN(C)S(=O)(=O)c2ccc(NC(C)=O)cc2)c1 | inactive: -1.04% |
| Cc1ccn2c(=O)nc(SCC(=O)NCc3ccco3)nc2c1 | inactive: 1.57% |
| O=C(CN1C(=O)/C(=C/c2ccccc2)SC1=S)NNC(=O)c1ccccc1O | inactive: -0.72% |
| C[N+](C)(C)CCCC(=O)c1ccc2c(c1)OCO2 | inconclusive: 31.6% |
| COc1ccc(CN2CCN(Cc3cccc(Oc4ccccc4)c3)CC2)c(OC)c1OC | inactive: -0.34% |
| CC1O[C@@H](OCC2O[C@@H](Oc3cc(O)c4c(c3)OC(c3ccc(O)cc3)CC4=O)[C@H](O)[C@@H](O)[C@@H]2O)[C@H](O)[C@H](O)[C@H]1O (stereo not given in full) | inconclusive: 25.5% |
| c1ccc2c(-c3c[nH]c4ccccc34)c3ccccc3nc2c1 | active: 37.3% |
| COc1ccc(C)cc1NC(=O)c1ccccc1NS(=O)(=O)c1ccc(Cl)s1 | inconclusive: 169% |
| COC(=O)/C(=C1/Oc2ccc(C(C)(C)C)cc2S1)C(F)(F)F | inactive: -0.103% |
| CCN(CC)S(=O)(=O)c1cccc(C(=O)Nc2ccc(Cl)cn2)c1 | active: 56.1% |
| Cc1nonc1OCCn1nnnc1N | inconclusive: 32.6% |
| Cc1ccc(OCC(O)CN2CCN(CC(O)COc3ccc(C)cc3Cl)CC2)c(Cl)c1 (stereo not given) | active: 65.8% |
| COc1cc2c(cc1OC)CN(CC(=O)Nc1ccc(F)cc1)C(C(=O)O)C2 (stereo not given) | active: 34.9% |
| CCCn1nc(NC(=O)c2cccs2)c2cc3cc(OC)ccc3nc21 | active: 68.5% |
| Cn1cnnc1SC(C(=O)c1ccccc1)c1ccccc1 (stereo not given) | inconclusive: 36.7% |

| Structure (SMILES) | growth rescue |
| --- | --- |
| CC1(C)CC(=O)C(C(=O)Cc2ccccc2[N+](=O)[O-])C(=O)C1 | active: 29.1% |
| COc1cc(COC(=O)Oc2ccc(CNC(C)=O)cc2OC)c([N+](=O)[O-])cc1OC | inactive: -0.812% |
| CCn1c2ccc(C)cc2c2nc3cc(C(=O)O)ccc3nc21 | active: 312% |
| COCCNC(=O)c1ccc(Cn2c(SCC(=O)NCC3CCCO3)nc3ccc(Br)cc3c2=O)cc1 (stereo not given) | inconclusive: 55.5% |
| CC(=O)c1sc(NC(=O)c2ccco2)nc1-c1ccccc1 | inactive: -0.116% |
| O=C(CSc1nnc(-c2ccco2)o1)Nc1ccccc1Cl | inconclusive: 40.8% |
| CSc1ccc(NC(=O)N2CCC(C(=O)c3ccc(F)cc3)CC2)cc1 | inconclusive: 27.2% |
| Cc1cc(NCCCN2CCOCC2)n2ncc(-c3ccc(Cl)cc3)c2n1 | inactive: -0.216% |
| Cc1nnc2n(c1=O)N=C(c1ccc(Cl)cc1)CS2 | inconclusive: 34.1% |
| COc1cc(NS(=O)(=O)c2ccc(C)cc2)c2ncccc2c1 | active: 542% |
| CCOc1cc(-c2c(C#N)c(N)nc3c2CCc2ccccc2-3)ccc1O | inconclusive: 71.5% |
| CCCC[C@@H]1CNC(=S)N1CCc1cccc2ccccc12 | inconclusive: 58.9% |
| CCCCn1c(N)c(N2CCOCC2)c(=O)n(CC(=O)NC(C)c2ccccc2)c1=O (stereo not given) | inconclusive: 28.5% |
| CCC(C)C(N)C(=O)NC(CCC(=O)OCc1ccccc1)C(N)=O (stereo not given) | inactive: -1.16% |
| Nc1cc2c(cc1[N+](=O)[O-])-c1ccccc1C2=NO | active: 73.2% |
| COc1ccc(/C=C/C(=O)NC2CC3CCC2C3)cc1 (stereo not given) | inactive: -0.928% |
| CCOC(=O)CN1C(=O)C(O)(C2CCc3ccccc3C2=O)c2ccccc21 (stereo not given) | inconclusive: 51.6% |
| CC(C)c1cc(C(=O)NNC(=S)NCc2ccco2)c(O)c(C(C)C)c1 | inconclusive: 37.8% |
| CCO[C@@H]1c2c(ccc3ccc(=O)oc23)OC(C)(C)[C@@H]1O | inactive: -1.73% |
| CCn1cc(C(=O)O)c(=O)c2cc(F)c(N3CCN(C(=S)NC(=O)c4ccccc4)CC3)cc21 | inactive: -0.564% |
| COc1ccc(OC)c(N2C(=O)CC(Cc3ccc(Cl)cc3)C2=O)c1 (stereo not given) | inconclusive: 37% |
| COc1cc(-c2nnc3sc(-c4ccco4)nn23)cc(OC)c1OC | inactive: -0.102% |
| Nc1nc(C2CCCN2S(=O)(=O)c2ccc(Cl)cc2)cs1 (stereo not given) | inactive: -1.2% |

| Structure (SMILES) | growth rescue |
| --- | --- |
| CNC(=O)c1sc(-c2cccnc2)nc1C | inactive: -0.206% |
| O=C(C(=O)N1CCCCCC1)c1c[nH]c2ccccc12 | inconclusive: 40.6% |
| O=[N+]([O-])c1cccc(Oc2ncccc2[N+](=O)[O-])c1 | inconclusive: 25.7% |
| O=C(Nc1nnc(-c2ccc3c(c2)CCCC3)o1)c1ccccc1 | inconclusive: 109% |
| COc1cc(/C=C/C(=O)/C=C(O)/C=C/c2ccc(O)c(OC)c2)ccc1O | inconclusive: 27.8% |
| Cc1ccc(N(C)C(=O)N2CCN(S(=O)(=O)c3ccc(C)c(C)c3)CC2)cc1 | inconclusive: 32.1% |
| CCC/C(=C1/c2ccccc2C(=O)N1c1ccccc1)c1ccc2[nH]ccc2c1 | inconclusive: 60.8% |
| CCOC(=O)C1CCCN(C(=O)c2cn(CC)c(=O)c3cc(OC)c(OC)cc23)C1 (stereo not given) | inconclusive: 32.7% |
| COc1cc2c(cc1OC)C(C)N(C(=O)c1cc3c(=O)oc4ccc(C)cc4c3s1)CC2 (stereo not given) | inconclusive: 27.4% |
| CC(=O)c1sc(NC(=O)CN2C(=O)NC3(CCCC3)C2=O)nc1-c1ccccc1 | inactive: 0.235% |
| Cc1ccc(N(C(=O)Cn2nnc(-c3ccccc3)n2)C(C(=O)NC2CCCCC2)c2ccccn2)cc1C (stereo not given) | inconclusive: 27.5% |
| O=C1c2ccccc2-c2onc3ccc(Oc4ccccc4)c1c23 | inconclusive: 38.3% |
| C(=C1c2ccccc2-c2ccccc21)c1ccncc1 | inconclusive: 224% |
| COc1cccc(CNC(=O)COc2ccc(C(=O)c3ccccc3)cc2)c1 | active: 499% |
| CC(C)N1CCN(Cc2ccc(OC3CCCC3)cc2)CC1CCO (stereo not given) | inactive: -1.61% |
| CC(=O)Nc1ccc(SC[C@H](Cc2ccccc2)N2CC[C@@H](C(C)(C)C)CCC2=O)cc1 | inconclusive: 25% |
| O=C(c1ccccc1)c1ccc2c(c1)OCCOCCOCCO2 | inconclusive: 33.4% |
| Oc1c(Cl)cc(Cl)cc1CNc1ccc(Br)cn1 | inconclusive: 277% |
| C#CCNC(=O)C1=C[C@@H](C2CCCCC2)[C@H](CCCO)[C@@H](OCC)O1 | inconclusive: 27.4% |
| CCn1c(Nc2ccccc2Cl)nc2ccccc21 | inactive: -0.481% |
| COc1ccccc1C(=O)NNC(=S)NC(=O)c1cc(OC)c(OC)c(OC)c1 | active: 61.6% |
